The source of these data is PubChem BioAssay AID901 (National Center for Advancing Translational Sciences (NCATS), 2007).

The list shows a part of the results. These are further read-outs of the screen, such as a control signal, another cell line or another target. No call is given for them. Compounds called inactive in the main read-out are mostly missing here. The note in brackets gives the kind of curve behind each potency; many fits are weak.

A word on the AC50: it is the midpoint of the concentration-response curve, whichever way the signal moves.

This experiment can be described thus: qHTS Assay for Identifying the Cell-Membrane Permeable IMPase Inhibitors. Particulars: CHO-M1 cells, IP1 accumulation, HTRF TR-FRET ratio; measured here: donor channel 620 nm AC50. For orientation: qHTS replaces the single test concentration by a dilution series.
`CCC1CCCCN1C(=O)Cn1c(=O)n(CCC(=O)NCc2ccco2)c(=O)c2sccc21` (stereo not drawn): the AC50 was 0.398 µM [rising, full curve, poor fit].

As for `COc1ccc(C(=O)NC2CCN(CC(=O)Nc3cccc(C)c3)CC2)cc1OC`, the AC50 was 0.2 µM [rising, single point].

As to `CCOc1ccc(-c2nnn(CC(=O)NCc3cccs3)n2)cc1`, the AC50 was 1.26 µM [rising, full curve, poor fit].

In the case of `COc1ccc2c(c1)CCCC21NC(=O)NC1=O` (stereo not drawn), the AC50 was 5.01 µM [rising, single point].

In the case of `COc1ccc(C2=CC(c3ccc(OC)c(OC)c3)NC(=S)N2)cc1` (stereo not drawn), the AC50 was 0.0501 µM [rising, partial curve, poor fit].

For `O=[N+]([O-])c1ccc(N2CCCC2)cc1NC(c1ccccc1)c1ccccc1`, the AC50 is 0.794 µM [rising, full curve, poor fit].

Turning to `Cc1c(O)c(CN2CCCC2)cc2c3c(c(=O)oc12)CCC3`, the AC50 is 12.6 µM [falling, single point].

On to `O=C1CC(N2CCCc3ccccc32)C(=O)N1c1ccccc1Cl` (stereo not drawn), for which the AC50 is 31.6 µM [falling, single point].

On to `CCc1c(C)c2cc(Cl)c(O)c(CN(CC)CC)c2oc1=O`, for which the AC50 was 3.16 µM [rising, single point].

In the case of `COC(=O)c1ccc(CSc2nnc3c(Cl)cc(Cl)cn23)o1`, the AC50 is 0.0891 µM [falling, full curve, poor fit].

Take `O=C(NCc1cccnc1)NC1(C(F)(F)F)Oc2ccccc2O1`: the AC50 was 0.158 µM [falling, full curve, poor fit].

With `O=C1C2CCCN2C(c2ccccc2)N1c1ccc(Cl)cc1` (stereo not drawn), the AC50 was 0.631 µM [rising, partial curve].

Take `Cc1nnsc1NC(=O)OCC(C)(C)C`: the AC50 was 0.0126 µM [rising, full curve, poor fit].

For `COc1ccc(Cl)cc1C(=O)NCC(C)C`, the half-maximal activity concentration (AC50) was 3.16 µM [falling, full curve].

For the molecule `CCc1ccc(C(C)NC(=O)Cn2cnc3c(=O)n(C)c(=O)n(C)c32)cc1` (stereo not drawn), the concentration at half-maximal activity (AC50) is 15.8 µM [falling, single point].

Take `COc1ccc(C(NC(=O)c2cccc(F)c2)c2ccccc2)cc1` (stereo not drawn): the AC50 was 0.141 µM [falling, full curve, poor fit].

Take `CCOC(=O)C1=NN(c2ccc(Cl)cc2)C(c2ccccc2)CC1=O` (stereo not drawn): the AC50 was 1 µM [falling, full curve].

Take `CC(=O)Nc1c(C#N)c(C(C)(C)C)cn1C`: the AC50 is 0.562 µM [falling, full curve].

As to `COc1ccc(OC)c(NC(=O)C(=O)/C=C(\O)c2cc(OC)ccc2OC)c1`, the AC50 was 3.98 µM [rising, full curve, poor fit].

With `O=C(Nc1cc(C(=O)N2CCOCC2)ccc1N1CCCC1)c1cccs1`, the concentration at half-maximal activity (AC50) was 5.62 µM [falling, single point].

In the case of `Nn1c(SCC(=O)Nc2ccc(Oc3ccccc3)cc2)nnc1C1CC1`, the AC50 was 25.1 µM [falling, single point].

For `COc1ccc(-c2nc(-c3ccc(Br)cc3)no2)c(OC)c1`, the AC50 was 5.01 µM [falling, single point].

With `Cc1ccc(-n2nnnc2-c2cnn(-c3ccc(F)cc3)c2C(F)(F)F)cc1`, the AC50 is 2 µM [falling, partial curve].

In the case of `Cc1ccc(Nc2c(-c3cccnc3)nc3ccc(Br)cn23)cc1`, the AC50 is 11.2 µM [rising, single point].

In the case of `Cc1ccccc1N/C=C/C(=C(C#N)C#N)N(C)C`, the AC50 was 31.6 µM [falling, single point].

As for `CCC(C)N1C(=O)CCC1C(=O)O` (stereo not drawn), the AC50 was 0.501 µM [falling, partial curve, poor fit].

For `O=C(CC12CC3CC(CC(C3)C1)C2)NCO`, the AC50 was 5.62 µM [rising, single point].

As to `O=C(Nc1cccc(C(F)(F)F)c1)C12CC3CC(CC(C3)C1)C2`, the AC50 is 0.01 µM [falling, full curve, poor fit].

Take `Cc1ccc(NCc2nnc(SCC(=O)c3ccccc3)o2)c(C)c1`: the AC50 was 0.0251 µM [rising, full curve, poor fit].

Take `CCc1ccc(-c2nc(CN3CCC(C(=O)NCc4ccccc4OC)CC3)c(C)o2)cc1`: the AC50 is 3.98 µM [falling, full curve].

As for `COc1ccc(OC)c(C2C(C(=O)Nc3ccc(F)cc3)=C(C)Nc3nc(CCCO)nn32)c1` (stereo not drawn), the AC50 is 1.26 µM [falling, single point].

Turning to `CCN1CCN(C(=O)Cn2ncc3ccsc3c2=O)CC1`, the AC50 was 35.5 µM [falling, partial curve, poor fit].

With `CCCCCCn1c(N2CCN(c3cccc(Cl)c3)CC2)nc2c1c(=O)[nH]c(=O)n2C`, the AC50 is 0.0158 µM [rising, full curve, poor fit].

`Cc1ccccc1NC(=O)CSc1nc2cc3c(cc2cc1C)CCC3`: the AC50 was 31.6 µM [rising, single point].

Consider `CCOc1ncccc1C(=O)NCc1ccc(OC)cc1`, for which the AC50 was 0.316 µM [falling, partial curve, poor fit].

As to `C=CCn1c(NCCOC)nc2c1c(=O)n(C)c(=O)n2C`, the AC50 was 0.0251 µM [rising, full curve, poor fit].

For the molecule `CCn1cc(S(=O)(=O)CC(=O)Nc2cc(C)on2)c2ccccc21`, the AC50 is 15.8 µM [rising, single point].

In the case of `Fc1ccc(/C=C/c2nnc(-c3cccs3)o2)cc1`, the AC50 was 35.5 µM [rising, single point].

As to `COc1ccc2cc(CN(Cc3cccnc3)Cc3nnnn3Cc3ccccc3)c(=O)[nH]c2c1`, the AC50 was 3.98 µM [falling, partial curve, poor fit].

As to `CNC(=O)c1ccc(N(Cc2ccccc2)S(C)(=O)=O)cc1`, the AC50 was 5.62 µM [falling, single point].

Turning to `CCOc1ccc(-n2nc3ccc(NC(=O)c4ccc(-c5cccc(Cl)c5)o4)cc3n2)cc1`, the AC50 was 2.24 µM [falling, partial curve, poor fit].

Turning to `O=S(=O)(c1ccc2c(c1)OCCO2)N1CCC(n2cnc3cc(F)ccc32)CC1`, the AC50 is 3.98 µM [rising, full curve, poor fit].

Take `CC(=O)c1sc2nc(SCC(=O)N3CCCCC3)[nH]c(=O)c2c1C`: the AC50 is 12.6 µM [rising, partial curve].
